The values that follow come from patent US20240299317A1, “Fenfluramine for Treatment of Conditions Associated with Spreading Depolarization” (ZOGENIX INTERNATIONAL LIMITED, priority 2021, published 2024).

The test system of this test is GABA spontaneous inhibitory postsynaptic currents. Briefly: GABA spontaneous inhibitory postsynaptic currents (sIPSCs). In kind it is cell-based. The note with it: asenapine with added serotonin, separate experiment.

Each structure is given as a SMILES string.

On to `CN1CC2c3ccccc3Oc3ccc(Cl)cc3C2C1` (stereo not shown) [asenapine], for which the “spontaneous inhibitory postsynaptic currents of added serotonin” value was “did reduce”.
